Measurements as given in PubChem BioAssay AID2685 (National Center for Advancing Translational Sciences (NCATS), 2010).
The other results are listed elsewhere or left out. Shown are side measurements of this screen, not its main read-out; they come without a call. Most of these compounds were active or inconclusive in the main read-out, so they are no random draw. Words in brackets tell the shape of the fitted curve; partial curves, single points and poor fits give uncertain potencies.

Test: qHTS Assay for Lipid Storage Modulators in Drosophila S3 Cells;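 on cell number change: cells counted by Cell Tracker Red CMTPX staining in the red channel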
Settings: BODIPY lipid droplet fluorescence, 18-24 h; for cell number change: measured here: cell count max response, cells fed with added oleic acid
Outline: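 Drosophila S3 cells got compounds at several concentrations plus oleic acid (400 uM solution). Laser-scanning cytometry with 488 nm excitation read lipid droplets at 500-530 nm and cells at 575-640 nm. Percent activity was relative to 20 uM Triacsin C.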

[1] = measured here: cell number channel AC50, cells fed with added oleic acid
[2] = measured here: lipid fluorescence (Fed channel) AC50, cells fed with added oleic acid

Compound: Cn1c(CCN2CCCCC2)nc2cc(NS(=O)(=O)c3ccccc3)ccc21
- cell number change: 51.6%
- AC50 [1]: 1.3 µM [rising, full curve]
- AC50 [2]: 2.59 µM [rising, full curve]

Compound: CCOc1ccc(NC(=S)NC(=O)c2c(Br)cnn2C)c([N+](=O)[O-])c1
- cell number change: 16.7%
- AC50 [2]: 18.4 µM [rising, single point]

Compound: O=C(Nc1ccc2c(c1)OCO2)C1CC(=O)N(c2ccccc2)C1 (stereo not drawn)
- cell number change: 7.39%
- AC50 [2]: 29.1 µM [rising, partial curve]

Compound: O=C(Nc1cccc2ncccc12)c1ccc(F)cc1
- cell number change: 17.5%
- AC50 [1]: 6.51 µM [rising, single point]
- AC50 [2]: 25.9 µM [rising, single point]

Compound: Cc1ccc(/C=N/NC(=O)Cc2ccc(O)cc2)s1
- AC50 [2]: 0.13 µM [falling, full curve, poor fit]

Compound: O=C(Nc1ccccc1C(=O)NC1CC1)c1ccc([N+](=O)[O-])o1
- cell number change: -30.8%
- AC50 [1]: 1.64 µM [falling, full curve]
- AC50 [2]: 1.64 µM [falling, partial curve]

Compound: O=C(N/N=C/c1ccc(N2CCOCC2)o1)c1cccc(C(F)(F)F)c1
- cell number change: -55.5%
- AC50 [1]: 20.6 µM [falling, partial curve]
- AC50 [2]: 16.4 µM [falling, partial curve]

Compound: Cc1cccc(COc2coc(CN3CCN(C(=O)c4ccco4)CC3)cc2=O)c1
- cell number change: -5.6%
- AC50 [2]: 14.6 µM [falling, single point]

Compound: O=C(O)c1cccc(N2C(=O)c3cccc4c(Cl)ccc(c34)C2=O)c1
- cell number change: 1.32%
- AC50 [1]: 7.31 µM [rising, single point]

Compound: Cc1coc2c(O)cc3c(c12)OC1(N2CCCCC2)C(=O)NCCCC31 (stereo not drawn)
- cell number change: -54.1%
- AC50 [1]: 8.2 µM [falling, partial curve]
- AC50 [2]: 8.2 µM [falling, partial curve]

Compound: CCC(C)(C)NC(=O)C(c1ccc(F)cc1)N(Cc1ccc(OC)cc1)C(=O)c1cnccn1 (stereo not drawn)
- cell number change: -17.5%
- AC50 [2]: 29.1 µM [falling, single point]

Compound: NC(=O)Cc1nc2scc(-c3ccccc3)c2c(=O)[nH]1
- cell number change: 62.5%
- AC50 [2]: 0.58 µM [rising, full curve, poor fit]

Compound: Oc1ccc(Br)cc1C=Nc1ccc2c3c(cccc13)CC2
- cell number change: -9.87%
- AC50 [2]: 29.1 µM [falling, single point]

Compound: CCOc1ccc(N2CC(C(=O)Nc3ccc(F)cc3F)CC2=O)cc1 (stereo not drawn)
- AC50 [2]: 0.116 µM [rising, single point]

Compound: Cc1nn(C)cc1C(C(=O)NC1CCCCC1)N(C(=O)Cc1cccs1)c1ccc(Cl)cc1 (stereo not drawn)
- cell number change: 51.1%
- AC50 [1]: 29.1 µM [rising, single point]
